According to patent EP4592253A1, “PROCESS FOR BREAKING UP ORGANIC PARTICLE AND MAGNETIC MATERIAL AGGREGATES USING AQUEOUS SOLUTIONS OF CARBONATES” (Captioplastic, S.L., priority 2024, dated 2025):

Experiment: Reuse of recovered magnetic iron material for magnetic separation of polyethylene microplastics from water
Conditions: for microplastic capture efficiency with the reused magnetic iron material: Figures 7, 8, 94 g/L of KHCO3 or 107.8 g/L of Na2CO3, washed with 1 L of water; for Formation of an aggregate again / MP capture efficiency with the reused magnetite (%): salt 0.95 M; for Formation of an aggregate again: washed with 1 L of water; for MP capture efficiency with the reused magnetite (%): PE 20 mg, reused magnetite 40 mg

## O=C([O-])O.[K+] [KHCO3, potassium bicarbonate]
  microplastic capture efficiency with the reused magnetic iron material: 99%

## O=C([O-])[O-].[Na+].[Na+] [Na2CO3, sodium carbonate]
  microplastic capture efficiency with the reused magnetic iron material: 99%

## [Cl-].[Na+] [NaCl, sodium chloride, reference compound]
Reuse cycle 1
  Formation of an aggregate again: No

## O=P([O-])(O)O.[Na+] [NaH2PO4, sodium biphosphate, reference compound]
Reuse cycle 1
  Formation of an aggregate again: No

## O=C([O-])O.[Na+] [NaHCO3]
Figure 2, reused up to at least 10 times, treatment with abundant water
  efficiency of the reuse of the magnetic iron material: > 95%
Reuse cycle 1
  MP capture efficiency with the reused magnetite (%): > 95%
  Formation of an aggregate again: Yes
Reuse cycle 2
  MP capture efficiency with the reused magnetite (%): > 95%
  Formation of an aggregate again: Yes
Reuse cycle 3
  MP capture efficiency with the reused magnetite (%): > 95%
  Formation of an aggregate again: Yes
Reuse cycle 4
  MP capture efficiency with the reused magnetite (%): > 95%
  Formation of an aggregate again: Yes
Reuse cycle 5
  MP capture efficiency with the reused magnetite (%): > 95%
  Formation of an aggregate again: Yes
Reuse cycle 6
  MP capture efficiency with the reused magnetite (%): > 95%
  Formation of an aggregate again: Yes
Reuse cycle 7
  MP capture efficiency with the reused magnetite (%): > 95%
  Formation of an aggregate again: Yes
Reuse cycle 8
  MP capture efficiency with the reused magnetite (%): > 95%
  Formation of an aggregate again: Yes
Reuse cycle 9
  MP capture efficiency with the reused magnetite (%): > 95%
  Formation of an aggregate again: Yes
Reuse cycle 10
  MP capture efficiency with the reused magnetite (%): > 95%
  Formation of an aggregate again: Yes
